Experimental data reported in paper PMC10143966, “The Replicative DnaE Polymerase of Bacillus subtilis Recruits the Glycolytic Pyruvate Kinase (PykA) When Bound to Primed DNA Templates” (Life, 2023).
Construct, isoform or probe ends are uncertain for at least one entry. No signal at the amounts used counts as a negative.

Tested on: DnaE polymerase + PykA PEPut domain
Test: SPR
Details: PEPut titrated onto DnaE (35 nM) on DNA, no PEPut recruitment to DnaE-DNA (DnaE itself binds), 25 mM MgCl2; SPR (Biacore T200, SA chip): 25 mM NaCl, 25 mM MgCl2, 150 mM Tris-HCl pH 7.5, 1 mM DTT, 25 °C; recombinant protein; protein details: His-MBP removed by TEV; label: 5' biotin on 110 mer (strand 1)

“CACACACACACACACACACACACACACACACACACACACACACACACACACACACACACCCCCTTTAAAAAAAAAAAAAAAAGCCAAAAGCAGTGCCAAGCTTGCATGCC / AGGGGGTGTGTGTGTGTGTGTGTGTGTGTG [primed probe, 30 mer on 5'-biotinylated 110 mer]”: no binding.
